Values from PubChem BioAssay AID1259308 (NCATS, 2017)
Screen: 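Genes whose loss raises luciferase production in HEK293 cells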 (primary screen). System: human HEK293 embryonic kidney cells stably expressing firefly luciferase (HEK-CMV-Luc2-Hygro). Reagent: single siRNA against human genes, 0.8 pmol siRNA per well. Duration: 72 h. Detection: 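Luciferase light (ONE-Glo) measured on one replicate plate set and viability (CellTiter-Glo) on the other, scaled to a negative control siRNA, with robust z-scores and luciferase per cell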. Reading the numbers: total luciferase, z-score: higher = more reporter protein produced. Rule for the call: 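Active when the median/MAD z-score for overall luciferase is greater than 3; a gene was taken forward for validation with new siRNAs if at least two of its three siRNAs passed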. Calls: active = raised luciferase; inactive = no rise.
Here is a random part of about 59,000 reagents tested. About 1,510 of them (2.6%) count as active. 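Calls use total luciferase alone and ignore viability, so some active siRNAs may act by altering cell number.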 Entries without a mark were called inactive. Reagents against one gene are numbered here. Not all columns of the deposit are shown.

For DSP #1, how do the results read?
total luciferase, z-score: -1.09

How did the screen score DSP #2?
total luciferase, z-score: -1.44

With DSP #3, what was measured?
total luciferase, z-score: 0.272

How did the screen score ITPKA #1?
total luciferase, z-score: -0.787

How did the screen score ITPKA #2?
total luciferase, z-score: 0.131

What did the screen give for ITPKA #3?
total luciferase, z-score: 0.343

With CLEC4F #1, how do the results read?
total luciferase, z-score: 0.364

What did the screen give for CLEC4F #2?
total luciferase, z-score: -1.36

What is on record for CLEC4F #3?
total luciferase, z-score: -0.951

Which result is listed for MRPS18C #1?
total luciferase, z-score: -0.612

For MRPS18C #2, what does the deposit list?
total luciferase, z-score: -1.75

With MRPS18C #3, what was measured?
total luciferase, z-score: -0.403

With HHAT #1, what does the deposit list?
total luciferase, z-score: -1.35

For HHAT #2, what was measured?
total luciferase, z-score: 0.863

With HHAT #3, what does the deposit list?
total luciferase, z-score: 0.206

For NFKBIA #1, what was measured?
total luciferase, z-score: -0.668

With NFKBIA #2, how do the results read?
total luciferase, z-score: 0.732

Which result is listed for NFKBIA #3?
total luciferase, z-score: 2.39

Quoted from the listing for reference:
ITPKA #2 — total luciferase, z-score: 0.131
ITPKA #3 — total luciferase, z-score: 0.343
CLEC4F #1 — total luciferase, z-score: 0.364

Further entries:
For GPR39 #1, what was measured?
total luciferase, z-score: 0.182

What is on record for GPR39 #2?
total luciferase, z-score: -0.231

What is on record for GPR39 #3?
total luciferase, z-score: -0.686

For SLAMF6 #1, how do the results read?
total luciferase, z-score: -0.683

For SLAMF6 #2, how do the results read?
total luciferase, z-score: 1.66

For SLAMF6 #3, what was measured?
total luciferase, z-score: -0.27

With C1orf122 #1, what was measured?
total luciferase, z-score: -0.138

For C1orf122 #2, what was measured?
total luciferase, z-score: -1.27

For C1orf122 #3, what was measured?
total luciferase, z-score: 0.592

Which result is listed for USP22 #1?
total luciferase, z-score: 1.56

What is on record for USP22 #2?
total luciferase, z-score: -1.9

With USP22 #3, how do the results read?
total luciferase, z-score: -0.0719

What is on record for ZNF205 #1?
total luciferase, z-score: -0.517

With ZNF205 #2, what does the deposit list?
total luciferase, z-score: 2.89

For ZNF205 #3, what does the deposit list?
total luciferase, z-score: -0.689
